Data source: PubChem BioAssay AID1159578 (Peter MacCallum Cancer Centre, 2015)
The deposit covers about 18,000 reagents; this is an unselected part. Over the whole deposit, about 1,030 (5.7%) are marked active. 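Inactive calls also include pools with fewer than 3300 nuclei, whose migration was not assessed.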 Raw values vary from plate to plate and are shown uncorrected. Unmarked entries are inactive. Not all columns of the deposit are shown.

- Assay: 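siRNA pools altering how lymphatic endothelial cells close a scratch wound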 (primary screen)
- Cell system: human lymphatic endothelial cells
- Reagent: siRNA pool against human genes, 40 nM
- Duration: 48 h after transfection
- Detection: 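High-content imaging of dye-stained cells in a scratch assay measures filled wound area and nuclei per well; duplicate means given as ratio to mock and robust z-score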
- Reading the numbers: migration robust z-score: higher = faster migration into the scratch; nuclei per well: higher = more cells in the well
- Call rule: 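Pools averaging fewer than 3300 nuclei are never called; remaining pools count as changed when migration robust z lies outside -2 to 2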
- Meaning of the calls: active = migration changed; inactive = no migration change, or too few cells

Against TNFRSF8 the deposit lists migration robust z-score -2.31 (active); migration class with cell-count check migration z below -2; enough cells; nuclei per well, duplicate mean 5400.
With knock-down of PDK2, the record shows migration robust z-score -1.17; migration class with cell-count check migration z between -2 and 2; enough cells; nuclei per well, duplicate mean 4963.
For NUDT3, the values are migration robust z-score 0.21; migration class with cell-count check migration z between -2 and 2; enough cells; nuclei per well, duplicate mean 6101.
With knock-down of MATCAP1, the screen gave migration robust z-score 0.52; migration class with cell-count check migration z between -2 and 2; enough cells; nuclei per well, duplicate mean 5772.
After knock-down of OR2G3, the record shows migration robust z-score 0.07; migration class with cell-count check migration z between -2 and 2; enough cells; nuclei per well, duplicate mean 5154.
Against DNAAF11, the entry reads migration robust z-score 0.7; migration class with cell-count check migration z between -2 and 2; enough cells; nuclei per well, duplicate mean 6064.
After knock-down of CPNE4 the results were migration robust z-score -0.98; migration class with cell-count check migration z between -2 and 2; enough cells; nuclei per well, duplicate mean 4988.
After knock-down of STK39, the record shows migration robust z-score -1.25; migration class with cell-count check migration z between -2 and 2; enough cells; nuclei per well, duplicate mean 4227.
Against ICOS, the values are migration robust z-score -1.63; migration class with cell-count check migration z between -2 and 2; enough cells; nuclei per well, duplicate mean 5854.
With knock-down of SMARCB1, the record shows migration robust z-score -0.16; migration class with cell-count check migration z between -2 and 2; enough cells; nuclei per well, duplicate mean 5604.
After knock-down of TRMT9B, the record shows migration robust z-score -0.7; migration class with cell-count check migration z between -2 and 2; enough cells; nuclei per well, duplicate mean 5140.
FBN2 gave migration robust z-score 0.56; migration class with cell-count check migration z between -2 and 2; enough cells; nuclei per well, duplicate mean 4962.
CRIM1 gave migration robust z-score -3.92; migration class with cell-count check under 3300 nuclei; migration not judged; nuclei per well, duplicate mean 2766.
After knock-down of FAM241A the results were migration robust z-score 1.71; migration class with cell-count check migration z between -2 and 2; enough cells; nuclei per well, duplicate mean 5436.

2 neighbouring reagents from above:
SMARCB1 | migration robust z-score = -0.16; migration class with cell-count check = migration z between -2 and 2; enough cells; nuclei per well, duplicate mean = 5604
TRMT9B | migration robust z-score = -0.7; migration class with cell-count check = migration z between -2 and 2; enough cells; nuclei per well, duplicate mean = 5140

Next entries follow:
With knock-down of SLC45A4, the record shows migration robust z-score 0.57; migration class with cell-count check migration z between -2 and 2; enough cells; nuclei per well, duplicate mean 6071.
Silencing of IGIP resulted in: migration robust z-score -2.02 (active); migration class with cell-count check migration z below -2; enough cells; nuclei per well, duplicate mean 5767.
SELENON showed migration robust z-score 0.72; migration class with cell-count check migration z between -2 and 2; enough cells; nuclei per well, duplicate mean 6616.
After knock-down of TDRD10 the results were migration robust z-score 0.87; migration class with cell-count check migration z between -2 and 2; enough cells; nuclei per well, duplicate mean 6787.
After knock-down of ZNF44 the results were migration robust z-score 1.1; migration class with cell-count check migration z between -2 and 2; enough cells; nuclei per well, duplicate mean 6705.
CASP7 scored migration robust z-score -0.8; migration class with cell-count check migration z between -2 and 2; enough cells; nuclei per well, duplicate mean 5516.
After knock-down of OR2L13, the record shows migration robust z-score -1.15; migration class with cell-count check migration z between -2 and 2; enough cells; nuclei per well, duplicate mean 5356.
